No constants are given. Whether binding was seen depends on the method and setting. Some results given as binding are weak or reduced against the parent protein; the word gives no strength.
Molecular target: T1, Cdc16 of the Cdc16–Cdc26 crystals (UniProt P41889)
T1 sequence: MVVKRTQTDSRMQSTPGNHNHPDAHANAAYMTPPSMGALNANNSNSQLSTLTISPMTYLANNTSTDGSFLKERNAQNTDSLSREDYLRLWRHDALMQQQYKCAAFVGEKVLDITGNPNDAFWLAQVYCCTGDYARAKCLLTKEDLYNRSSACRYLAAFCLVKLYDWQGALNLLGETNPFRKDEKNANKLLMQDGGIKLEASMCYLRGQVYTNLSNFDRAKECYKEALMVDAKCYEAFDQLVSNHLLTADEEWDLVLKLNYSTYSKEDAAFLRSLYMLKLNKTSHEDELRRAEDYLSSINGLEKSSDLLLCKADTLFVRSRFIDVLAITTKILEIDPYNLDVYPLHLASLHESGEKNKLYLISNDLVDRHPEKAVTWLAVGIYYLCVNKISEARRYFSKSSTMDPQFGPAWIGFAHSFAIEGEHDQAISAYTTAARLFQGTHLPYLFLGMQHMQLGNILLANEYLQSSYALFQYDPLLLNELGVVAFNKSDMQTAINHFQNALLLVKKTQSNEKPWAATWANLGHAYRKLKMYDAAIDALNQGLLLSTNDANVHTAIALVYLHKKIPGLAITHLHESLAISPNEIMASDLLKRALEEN
Assay: crystal structure; Cdc16–Cdc26 crystals (previously determined by SAD) phased by molecular replacement (Phaser) with the Cdc16–Cdc26-assigned EM density of S. pombe APC/C as search model; diffraction data cut to 4–30 Å; phases extended from 10 to 5 Å; both purified

B1: Cdc26 (Hcn1) subunit of recombinant S. pombe APC/C (natural protein, UniProt O13916 1-80, looked up)
chain: MLRRNPTAIQITAEDVLAYDEEKLRQTLDSESTTEEALQKNEESTRLSPEKKKIIRERRIGITQIFDSSMHPSQGGAAQS
notes: Cdc26 (S. pombe name Hcn1), TPR accessory subunit of the S. pombe anaphase-promoting complex; Subunit within the recombinant S. pombe APC/C used for cryo-EM; source: recombinant S. pombe APC/C
For B1, the binding was “binds”.

— publication PMC3817697, “Building a pseudo-atomic model of the anaphase-promoting complex” (Acta Crystallographica Section D: Biological Crystallography, 2013)
